Test results: paper PMC9747586
These are yes or no findings as the source states them, for the method shown. In cells and extracts the contact can be indirect. A yes stands for co-enrichment or nearness to the bait. Other partners may have been found.

By UniProt entry, the sequences of proteins in these tests, tags left out.
UniProt Q14258: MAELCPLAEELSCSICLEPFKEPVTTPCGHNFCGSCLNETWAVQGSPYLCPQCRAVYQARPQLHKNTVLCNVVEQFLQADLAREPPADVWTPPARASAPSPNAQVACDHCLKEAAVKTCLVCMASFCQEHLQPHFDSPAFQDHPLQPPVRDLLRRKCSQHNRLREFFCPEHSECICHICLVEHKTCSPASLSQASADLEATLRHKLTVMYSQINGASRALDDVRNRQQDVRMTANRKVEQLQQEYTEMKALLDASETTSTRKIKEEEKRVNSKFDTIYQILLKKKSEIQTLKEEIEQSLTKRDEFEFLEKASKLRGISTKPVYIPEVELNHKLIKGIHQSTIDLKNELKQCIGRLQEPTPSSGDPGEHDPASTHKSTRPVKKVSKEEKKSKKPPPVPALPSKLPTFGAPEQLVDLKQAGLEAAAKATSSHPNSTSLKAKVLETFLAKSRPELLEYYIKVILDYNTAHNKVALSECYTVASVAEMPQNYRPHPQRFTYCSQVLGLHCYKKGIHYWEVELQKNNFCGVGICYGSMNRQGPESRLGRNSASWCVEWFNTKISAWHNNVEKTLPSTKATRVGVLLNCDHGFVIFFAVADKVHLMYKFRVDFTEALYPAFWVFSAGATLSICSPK
UniProt Q93009: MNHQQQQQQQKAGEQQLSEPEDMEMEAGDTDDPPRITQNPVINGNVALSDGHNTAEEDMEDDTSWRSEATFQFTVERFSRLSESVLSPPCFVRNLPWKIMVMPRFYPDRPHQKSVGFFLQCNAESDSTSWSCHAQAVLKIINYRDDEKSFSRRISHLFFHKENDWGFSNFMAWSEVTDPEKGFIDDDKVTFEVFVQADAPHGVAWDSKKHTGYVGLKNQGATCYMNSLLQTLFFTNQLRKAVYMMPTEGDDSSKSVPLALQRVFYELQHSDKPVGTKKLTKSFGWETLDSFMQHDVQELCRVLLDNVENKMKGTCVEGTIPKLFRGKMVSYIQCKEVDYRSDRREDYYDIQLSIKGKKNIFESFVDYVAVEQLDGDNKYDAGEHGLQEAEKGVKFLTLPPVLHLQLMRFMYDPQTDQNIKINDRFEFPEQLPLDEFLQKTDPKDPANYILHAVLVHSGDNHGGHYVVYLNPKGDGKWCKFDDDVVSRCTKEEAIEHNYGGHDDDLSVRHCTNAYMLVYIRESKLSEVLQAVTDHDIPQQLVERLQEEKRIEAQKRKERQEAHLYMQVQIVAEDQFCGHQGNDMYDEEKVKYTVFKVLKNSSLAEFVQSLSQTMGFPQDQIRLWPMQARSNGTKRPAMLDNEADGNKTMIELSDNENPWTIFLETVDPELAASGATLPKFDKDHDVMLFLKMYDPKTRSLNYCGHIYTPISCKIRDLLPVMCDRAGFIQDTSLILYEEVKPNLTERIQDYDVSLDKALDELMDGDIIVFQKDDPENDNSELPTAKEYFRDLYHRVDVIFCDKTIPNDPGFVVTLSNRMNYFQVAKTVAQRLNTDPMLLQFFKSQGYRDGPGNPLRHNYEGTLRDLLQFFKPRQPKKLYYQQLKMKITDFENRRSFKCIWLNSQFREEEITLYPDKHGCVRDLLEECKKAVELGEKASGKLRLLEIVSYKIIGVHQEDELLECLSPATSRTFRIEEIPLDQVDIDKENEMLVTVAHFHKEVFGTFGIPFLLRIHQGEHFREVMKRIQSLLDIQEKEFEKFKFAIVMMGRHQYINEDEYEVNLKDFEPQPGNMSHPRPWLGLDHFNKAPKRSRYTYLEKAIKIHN

T1: IFNLR1-BioID2 (BioID2 biotin ligase conjugated to the carboxyl-terminus of IFNLR1) (UniProt Q8IU57)
T1 sequence: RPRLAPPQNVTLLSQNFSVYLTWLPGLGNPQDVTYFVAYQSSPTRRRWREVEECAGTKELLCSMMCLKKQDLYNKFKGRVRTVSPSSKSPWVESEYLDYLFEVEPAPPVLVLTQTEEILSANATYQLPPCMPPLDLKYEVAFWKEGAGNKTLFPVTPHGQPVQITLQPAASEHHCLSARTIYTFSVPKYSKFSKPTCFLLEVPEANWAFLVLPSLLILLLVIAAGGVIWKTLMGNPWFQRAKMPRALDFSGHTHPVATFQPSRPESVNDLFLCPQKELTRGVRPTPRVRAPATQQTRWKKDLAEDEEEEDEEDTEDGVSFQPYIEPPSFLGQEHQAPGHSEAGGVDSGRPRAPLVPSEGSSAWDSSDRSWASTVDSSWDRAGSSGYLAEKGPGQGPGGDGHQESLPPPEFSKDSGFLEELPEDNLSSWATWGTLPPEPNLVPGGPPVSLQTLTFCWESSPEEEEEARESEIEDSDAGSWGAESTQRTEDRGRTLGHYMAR

T2: IFNLR1-miniTurbo (biotin ligase miniTurbo conjugated to the carboxyl-terminus of IFNLR1) (UniProt Q8IU57)
T2 sequence: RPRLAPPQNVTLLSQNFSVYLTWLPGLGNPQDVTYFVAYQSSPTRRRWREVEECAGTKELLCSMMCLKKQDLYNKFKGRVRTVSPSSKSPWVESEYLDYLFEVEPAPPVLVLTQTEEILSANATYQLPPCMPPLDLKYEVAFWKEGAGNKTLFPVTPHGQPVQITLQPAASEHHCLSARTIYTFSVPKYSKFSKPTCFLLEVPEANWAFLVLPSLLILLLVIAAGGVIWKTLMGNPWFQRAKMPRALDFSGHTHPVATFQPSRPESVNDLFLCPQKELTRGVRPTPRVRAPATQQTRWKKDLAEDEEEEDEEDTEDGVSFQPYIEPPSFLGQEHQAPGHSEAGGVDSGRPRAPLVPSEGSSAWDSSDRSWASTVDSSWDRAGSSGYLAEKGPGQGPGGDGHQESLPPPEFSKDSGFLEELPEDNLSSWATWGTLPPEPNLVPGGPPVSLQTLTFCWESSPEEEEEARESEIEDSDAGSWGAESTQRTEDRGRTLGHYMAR

B1: FBXO45 (endogenous, found in the proximity labelling screens) (protein, UniProt P0C2W1 1-286)
chain: MAAPAPGAGAASGGAGCSGGGAGAGAGSGSGAAGAGGRLPSRVLELVFSYLELSELRSCALVCKHWYRCLHGDENSEVWRSLCARSLAEEALRTDILCNLPSYKAKIRAFQHAFSTNDCSRNVYIKKNGFTLHRNPIAQSTDGARTKIGFSEGRHAWEVWWEGPLGTVAVIGIATKRAPMQCQGYVALLGSDDQSWGWNLVDNNLLHNGEVNGSFPQCNNAPKYQIGERIRVILDMEDKTLAFERGYEFLGVAFRGLPKVCLYPAVSAVYGNTEVTLVYLGKPLDG

How the values were obtained:
[1] = target: T1, IFNLR1-BioID2 (BioID2 biotin ligase conjugated to the carboxyl-terminus of IFNLR1); test: proximity labelling; BioID2 fused to the C-terminus of IFNLR1, HEK-293T transiently transfected 48 h, biotin treatment (overnight in the text, 1 h in the legend and methods), streptavidin magnetic beads, mass spectrometry; controls BioID2 alone, IFNGR1-BioID2, SIRPA-BioID2
[2] = target: T2, IFNLR1-miniTurbo (biotin ligase miniTurbo conjugated to the carboxyl-terminus of IFNLR1); test: proximity labelling; miniTurbo fused to the C-terminus of IFNLR1, transiently transfected cells, biotin 1 h before harvest, streptavidin magnetic beads, mass spectrometry; compared to miniTurbo alone

Row | Molecule | binding [1] | binding [2]
1 | TRIM25 (from UniProt Q14258 1-630) | binds | –
2 | USP7 (from UniProt Q93009 1-1102) | binds | –
3 | B1 | binds | binds
